{"sequences": {"note": "Protein sequences, listed by entry. Tags and fused reporters are not part of them. Lines headed by an entry give the natural chain unless they say otherwise; changes in a name come on top.", "UniProt P98170": "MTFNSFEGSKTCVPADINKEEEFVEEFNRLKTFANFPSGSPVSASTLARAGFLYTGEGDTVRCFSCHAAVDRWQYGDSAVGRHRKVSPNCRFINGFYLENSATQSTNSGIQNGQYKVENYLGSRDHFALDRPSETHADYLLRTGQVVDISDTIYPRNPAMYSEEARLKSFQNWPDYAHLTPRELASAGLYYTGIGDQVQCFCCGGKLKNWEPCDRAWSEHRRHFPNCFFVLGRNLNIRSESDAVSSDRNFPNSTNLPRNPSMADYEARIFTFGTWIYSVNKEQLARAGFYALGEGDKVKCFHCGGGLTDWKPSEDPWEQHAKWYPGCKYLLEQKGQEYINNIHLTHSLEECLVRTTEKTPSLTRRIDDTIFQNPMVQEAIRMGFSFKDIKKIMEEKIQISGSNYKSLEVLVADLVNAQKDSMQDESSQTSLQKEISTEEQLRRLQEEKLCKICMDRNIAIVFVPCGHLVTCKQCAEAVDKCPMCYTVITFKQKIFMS", "UniProt Q93008": "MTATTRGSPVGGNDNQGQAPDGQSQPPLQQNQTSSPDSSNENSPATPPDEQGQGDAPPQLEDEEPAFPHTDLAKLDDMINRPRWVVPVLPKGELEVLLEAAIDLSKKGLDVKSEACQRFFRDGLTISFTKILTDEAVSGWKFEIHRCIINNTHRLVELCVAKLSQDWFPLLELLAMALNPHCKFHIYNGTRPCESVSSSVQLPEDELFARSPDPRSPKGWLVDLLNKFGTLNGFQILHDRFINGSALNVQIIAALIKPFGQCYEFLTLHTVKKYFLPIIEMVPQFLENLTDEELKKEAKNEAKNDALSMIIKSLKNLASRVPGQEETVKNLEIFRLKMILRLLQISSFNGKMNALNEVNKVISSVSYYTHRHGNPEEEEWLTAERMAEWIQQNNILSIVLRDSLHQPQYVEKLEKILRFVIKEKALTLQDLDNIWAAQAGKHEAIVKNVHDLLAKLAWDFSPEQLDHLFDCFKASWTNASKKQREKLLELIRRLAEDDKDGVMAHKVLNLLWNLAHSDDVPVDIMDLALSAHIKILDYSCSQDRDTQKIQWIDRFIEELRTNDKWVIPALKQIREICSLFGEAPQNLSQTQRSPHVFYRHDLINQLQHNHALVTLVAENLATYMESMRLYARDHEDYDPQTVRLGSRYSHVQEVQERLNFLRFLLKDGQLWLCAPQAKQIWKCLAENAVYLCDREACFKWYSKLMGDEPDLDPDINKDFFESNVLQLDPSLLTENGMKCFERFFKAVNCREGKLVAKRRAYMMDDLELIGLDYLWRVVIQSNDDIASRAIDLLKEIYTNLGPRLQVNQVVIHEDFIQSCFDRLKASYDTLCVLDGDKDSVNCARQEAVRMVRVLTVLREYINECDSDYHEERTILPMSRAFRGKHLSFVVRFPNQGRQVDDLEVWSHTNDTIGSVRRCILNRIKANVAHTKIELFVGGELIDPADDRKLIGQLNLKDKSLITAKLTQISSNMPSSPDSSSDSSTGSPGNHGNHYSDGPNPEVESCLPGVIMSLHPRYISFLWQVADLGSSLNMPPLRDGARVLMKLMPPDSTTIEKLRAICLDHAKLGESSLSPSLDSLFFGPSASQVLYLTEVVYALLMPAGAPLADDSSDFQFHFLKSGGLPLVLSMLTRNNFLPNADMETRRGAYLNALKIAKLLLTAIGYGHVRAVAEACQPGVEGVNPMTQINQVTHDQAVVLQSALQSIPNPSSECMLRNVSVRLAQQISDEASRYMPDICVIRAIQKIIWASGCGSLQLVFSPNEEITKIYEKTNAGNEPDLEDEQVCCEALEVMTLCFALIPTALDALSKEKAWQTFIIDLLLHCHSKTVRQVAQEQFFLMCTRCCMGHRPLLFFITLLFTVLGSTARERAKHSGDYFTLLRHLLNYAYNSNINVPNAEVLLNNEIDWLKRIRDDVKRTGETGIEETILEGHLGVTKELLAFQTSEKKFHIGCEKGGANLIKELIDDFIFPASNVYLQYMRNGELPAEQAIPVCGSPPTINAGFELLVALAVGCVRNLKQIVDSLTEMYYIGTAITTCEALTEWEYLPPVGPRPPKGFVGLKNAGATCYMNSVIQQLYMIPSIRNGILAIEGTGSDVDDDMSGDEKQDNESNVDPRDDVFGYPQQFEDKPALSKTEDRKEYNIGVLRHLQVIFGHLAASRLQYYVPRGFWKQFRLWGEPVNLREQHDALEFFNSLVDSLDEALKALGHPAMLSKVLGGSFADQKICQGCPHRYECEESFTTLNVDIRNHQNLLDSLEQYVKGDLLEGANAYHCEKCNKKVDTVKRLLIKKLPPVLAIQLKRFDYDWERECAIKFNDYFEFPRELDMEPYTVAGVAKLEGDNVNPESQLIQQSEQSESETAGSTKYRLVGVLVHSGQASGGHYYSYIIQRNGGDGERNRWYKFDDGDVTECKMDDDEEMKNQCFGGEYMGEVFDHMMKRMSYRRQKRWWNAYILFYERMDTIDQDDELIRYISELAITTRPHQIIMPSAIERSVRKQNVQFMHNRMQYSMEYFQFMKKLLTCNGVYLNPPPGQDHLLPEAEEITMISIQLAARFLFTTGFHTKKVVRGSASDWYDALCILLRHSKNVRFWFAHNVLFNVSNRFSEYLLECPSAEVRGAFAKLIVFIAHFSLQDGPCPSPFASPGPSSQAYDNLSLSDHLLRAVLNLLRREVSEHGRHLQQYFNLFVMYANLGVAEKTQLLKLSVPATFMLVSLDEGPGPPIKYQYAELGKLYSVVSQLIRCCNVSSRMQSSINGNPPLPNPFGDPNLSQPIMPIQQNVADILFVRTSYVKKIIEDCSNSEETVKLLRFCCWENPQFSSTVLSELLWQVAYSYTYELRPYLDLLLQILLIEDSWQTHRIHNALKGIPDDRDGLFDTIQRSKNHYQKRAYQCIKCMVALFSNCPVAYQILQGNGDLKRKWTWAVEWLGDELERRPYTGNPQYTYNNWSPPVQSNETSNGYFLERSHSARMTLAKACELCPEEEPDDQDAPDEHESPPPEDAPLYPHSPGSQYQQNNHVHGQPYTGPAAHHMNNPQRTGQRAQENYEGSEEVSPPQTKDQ"}, "source": "paper PMC4967940", "key": {"[1]": {"target": "FLAG-tagged XIAP (X-linked inhibitor of apoptosis protein), wild type (UniProt P98170)", "experiment": "condition: only cells treated with the SMAC mimetic BV6; co-IP; FLAG-tagged XIAP with endogenous USP9X from HEK 293T cells treated with the SMAC mimetic BV6 as specified and nocodazole for 12 h"}, "[2]": {"target": "FLAG-tagged XIAP single amino acid mutant G188R (UniProt P98170)", "experiment": "co-IP; FLAG-tagged XIAP (wild type or mutants) transfected into HEK 293T cells, synchronized in mitosis with nocodazole or left untreated (also prolonged taxol); endogenous USP9X detected by blot; lysis buffer Tris-HCl 50 mM, NaCl 150 mM, EDTA 1 mM, Triton X-100 1%"}, "[3]": {"target": "FLAG-tagged XIAP (X-linked inhibitor of apoptosis protein), wild type (UniProt P98170)", "experiment": "co-IP; FLAG-tagged XIAP (wild type or mutants) transfected into HEK 293T cells, synchronized in mitosis with nocodazole or left untreated (also prolonged taxol); endogenous USP9X detected by blot; lysis buffer Tris-HCl 50 mM, NaCl 150 mM, EDTA 1 mM, Triton X-100 1%"}, "[4]": {"target": "FLAG-tagged XIAP single amino acid mutant G188E (UniProt P98170)", "experiment": "co-IP; FLAG-tagged XIAP (wild type or mutants) transfected into HEK 293T cells, synchronized in mitosis with nocodazole or left untreated (also prolonged taxol); endogenous USP9X detected by blot; lysis buffer Tris-HCl 50 mM, NaCl 150 mM, EDTA 1 mM, Triton X-100 1%"}}, "note": "No constants are given. Whether binding was seen depends on the method and setting. In cells and extracts the contact can be indirect. Some entries that bind do so weakly or less than the wild type."}
{"substance": "ubiquitin-specific protease 9X (USP9X), endogenous (from UniProt Q93008 1-2554) (enzyme)", "values": [{"measurement": "binding", "setting": "[1]", "value": "no binding"}, {"measurement": "binding", "setting": "[2]", "value": "no binding"}, {"measurement": "binding", "setting": "[3]", "value": "binds"}, {"measurement": "binding", "setting": "[4]", "value": "no binding"}]}
